Like-named read-outs stand apart in the source and are kept apart here.
What was measured:
[1] = Hardening activity of the photoinitiators: maximum conveyor belt speed giving a nail-hard, scratch-resistant surface (80 μm film, Hg high-pressure lamp); conditions: for Maximum conveyor belt speed, in inert gas / Maximum conveyor belt speed, in air: 3 parts initiator
[2] = Temperature variation during photopolymerization of unsaturated polyester resin A; conditions: 0.35% photoinitiator
[3] = Yellowing of photopolymerized finishes on white photographic paper (yellowness index, ASTM D 1925)
[4] = Temperature variation during photopolymerization of unsaturated polyester resin B; conditions: 0.35% photoinitiator
[5] = Light-hardening of unsaturated polyester resin under fluorescent lamps, Konig pendulum hardness; conditions: after an exposure time of 4 minutes
[6] = concentration employed 3%, inert gas, 72 m/min

Structure (SMILES) | Maximum conveyor belt speed, in inert gas [1] | Maximum temperature reached by sample, Tmax [2] | Maximum conveyor belt speed, in air; 3% of N-phenylglycine added to the mixture [1] | Maximum conveyor belt speed, in air [1] | other results
Cc1ccccc1C(=O)P(=O)(c1ccccc1)c1ccccc1 [2-Methylbenzoyl-diphenylphosphine oxide, 2-methylbenzoyldiphenylphosphine oxide] | 70 m/min |  |  |  | 
CC(C)(C)c1ccc(C(=O)P(=O)(c2ccccc2)c2ccccc2)cc1 [4-tert.-Butyl-benzoyldiphenylphosphine oxide] |  | 120 °C |  |  | 
COC(OC)(C(=O)c1ccccc1)c1ccccc1 [Benzil dimethylketal, reference compound] |  |  |  |  | Yellowing measured in terms of the yellowness index [3, 6]: 9.20
CCOP(=O)(OCC)C(=O)C(C)(C)C [Diethyl pivaloylphosphonate, reference compound] | 10 m/min |  |  |  | 
CCCCC(CC)C(=O)P(=O)(OC)c1ccccc1 (stereo not shown) [Methyl 2-ethylhexanoyl-phenylphosphinate, Methyl 2-ethyl-hexanoyl-phenylphosphinate] | 40 m/min |  |  |  | 
COP(=O)(C(=O)C(C)(C)C)c1ccccc1 (stereo not shown) [Methyl pivaloylphenylphosphinate] | 150 m/min | 106 °C | 10 m/min | 10 m/min | Yellowing measured in terms of the yellowness index [3]: -2.34; Hardening time (time between 25° C. and Tmax) [4]: 13 min; Maximum temperature reached by sample, Tmax [4]: 112 °C
COP(=O)(C(=O)c1ccc(C)cc1)c1ccccc1 (stereo not shown) [Methyl toluyl-phenylphosphinate, methyl 4-methylbenzoyl-phenylphosphinate] | 70 m/min |  | 25 m/min | 10 m/min | 
CC(C)(C)C(=O)P(=O)(c1ccccc1)c1ccccc1 [Pivaloyl-diphenylphosphine oxide, pivaloyldiphenylphosphine oxide] | 150 m/min |  | 25 m/min | 11 m/min | Yellowing measured in terms of the yellowness index [3, 6]: -3.33; Film workability after hardening [5]: can be rubbed down and buffed; Konig pendulum hardness ([5]; 1.5 parts initiator to 97 parts resin): 76 s
O=C(c1ccc(C(=O)P(=O)(c2ccccc2)c2ccccc2)cc1)P(=O)(c1ccccc1)c1ccccc1 [terephthaloyl-bis-diphenylphosphine oxide] |  | 109 °C |  |  | 
